Results as given in publication PMC3508985.
Results are given in words; binding and its absence hold for the method and conditions named. In cells and extracts the contact can be indirect. Some entries that bind do so weakly or less than the wild type. For some assays here: Where a sequence is shown, tags or fusion partners need not be part of it. Values belong to the binder of their own block, whether it stands above or below them.

Chains of the proteins cited; added tags and fusions are not shown.
UniProt P01106: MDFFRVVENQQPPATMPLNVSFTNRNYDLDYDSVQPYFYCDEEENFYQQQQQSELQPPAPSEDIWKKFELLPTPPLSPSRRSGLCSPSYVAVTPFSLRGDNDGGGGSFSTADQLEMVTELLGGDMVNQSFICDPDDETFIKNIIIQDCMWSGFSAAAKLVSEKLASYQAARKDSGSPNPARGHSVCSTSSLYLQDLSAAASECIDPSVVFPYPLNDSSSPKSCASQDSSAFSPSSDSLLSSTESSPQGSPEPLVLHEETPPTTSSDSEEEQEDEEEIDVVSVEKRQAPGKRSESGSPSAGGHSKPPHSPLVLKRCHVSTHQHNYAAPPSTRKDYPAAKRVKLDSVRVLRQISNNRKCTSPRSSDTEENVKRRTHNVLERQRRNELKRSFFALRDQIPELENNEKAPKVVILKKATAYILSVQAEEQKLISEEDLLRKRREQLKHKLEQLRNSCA

Experiments:
[1] = biological target: YC-MYC (UniProt P01106); experiment: split reporter; split-YFP BiFC in living HeLa cells, transient transfection with DsRed as transfection control; after 2 days 1.5 hours at 30°C for maturation; confocal microscopy
[2] = biological target: Myc-p62 (UniProt Q13501); experiment: co-IP; HA-ARTD10 and Myc-p62 co-expressed in HEK293; cells treated with 0.5 mM dimethyl 3,3′-dithiobispropionimidate in PBS for 30 minutes before lysis (20 mM Tris–HCl pH 7.5, 50 mM NaCl, 0.5% NP-40, 0.5% DOC, 0.5% SDS); p62 immunoprecipitated, Western blot

- binding [1]: binds
B1: YN-ARTD10 (enzyme, UniProt Q53GL7 1-1025)
chain: MVAMAEAEAGVAVEVRGLPPAVPDELLTLYFENRRRSGGGPVLSWQRLGCGGVLTFREPADAERVLAQADHELHGAQLSLRPAPPRAPARLLLQGLPPGTTPQRLEQHVQALLRASGLPVQPCCALASPRPDRALVQLPKPLSEADVRVLEEQAQNLGLEGTLVSLARVPQARAVRVVGDGASVDLLLLELYLENERRSGGGPLEDLQRLPGPLGTVASFQQWQVAERVLQQEHRLQGSELSLVPHYDILEPEELAENTSGGDHPSTQGPRATKHALLRTGGLVTALQGAGTVTMGSGEEPGQSGASLRTGPMVQGRGIMTTGSGQEPGQSGTSLRTGPMGSLGQAEQVSSMPMGSLEHEGLVSLRPVGLQEQEGPMSLGPVGSAGPVETSKGLLGQEGLVEIAMDSPEQEGLVGPMEITMGSLEKAGPVSPGCVKLAGQEGLVEMVLLMEPGAMRFLQLYHEDLLAGLGDVALLPLEGPDMTGFRLCGAQASCQAAEEFLRSLLGSISCHVLCLEHPGSARFLLGPEGQHLLQGLEAQFQCVFGTERLATATLDTGLEEVDPTEALPVLPGNAHTLWTPDSTGGDQEDVSLEEVRELLATLEGLDLDGEDWLPRELEEEGPQEQPEEEVTPGHEEEEPVAPSTVAPRWLEEEAALQLALHRSLEPQGQVAEQEEAAALRQALTLSLLEQPPLEAEEPPDGGTDGKAQLVVHSAFEQDVEELDRALRAALEVHVQEETVGPWRRTLPAELRARLERCHGVSVALRGDCTILRGFGAHPARAARHLVALLAGPWDQSLAFPLAASGPTLAGQTLKGPWNNLERLAENTGEFQEVVRAFYDTLDAARSSIRVVRVERVSHPLLQQQYELYRERLLQRCERRPVEQVLYHGTTAPAVPDICAHGFNRSFCGRNATVYGKGVYFARRASLSVQDRYSPPNADGHKAVFVARVLTGDYGQGRRGLRAPPLRGPGHVLLRYDSAVDCICQPSIFVIFHDTQALPTHLITCEHVPRASPDDPSGLPGRSPDT

- binding [2]: binds weakly
B2: HA-ARTD10 (enzyme, UniProt Q53GL7 1-1025)
chain: B1 chain
